Results are given in words; binding and its absence hold for the method and conditions named. Binding seen in cells or lysates may run through a third protein. Some results given as binding are weak or reduced against the parent protein; the word gives no strength.

By UniProt entry, the sequences of proteins in these tests, tags left out.
UniProt Q9HC29: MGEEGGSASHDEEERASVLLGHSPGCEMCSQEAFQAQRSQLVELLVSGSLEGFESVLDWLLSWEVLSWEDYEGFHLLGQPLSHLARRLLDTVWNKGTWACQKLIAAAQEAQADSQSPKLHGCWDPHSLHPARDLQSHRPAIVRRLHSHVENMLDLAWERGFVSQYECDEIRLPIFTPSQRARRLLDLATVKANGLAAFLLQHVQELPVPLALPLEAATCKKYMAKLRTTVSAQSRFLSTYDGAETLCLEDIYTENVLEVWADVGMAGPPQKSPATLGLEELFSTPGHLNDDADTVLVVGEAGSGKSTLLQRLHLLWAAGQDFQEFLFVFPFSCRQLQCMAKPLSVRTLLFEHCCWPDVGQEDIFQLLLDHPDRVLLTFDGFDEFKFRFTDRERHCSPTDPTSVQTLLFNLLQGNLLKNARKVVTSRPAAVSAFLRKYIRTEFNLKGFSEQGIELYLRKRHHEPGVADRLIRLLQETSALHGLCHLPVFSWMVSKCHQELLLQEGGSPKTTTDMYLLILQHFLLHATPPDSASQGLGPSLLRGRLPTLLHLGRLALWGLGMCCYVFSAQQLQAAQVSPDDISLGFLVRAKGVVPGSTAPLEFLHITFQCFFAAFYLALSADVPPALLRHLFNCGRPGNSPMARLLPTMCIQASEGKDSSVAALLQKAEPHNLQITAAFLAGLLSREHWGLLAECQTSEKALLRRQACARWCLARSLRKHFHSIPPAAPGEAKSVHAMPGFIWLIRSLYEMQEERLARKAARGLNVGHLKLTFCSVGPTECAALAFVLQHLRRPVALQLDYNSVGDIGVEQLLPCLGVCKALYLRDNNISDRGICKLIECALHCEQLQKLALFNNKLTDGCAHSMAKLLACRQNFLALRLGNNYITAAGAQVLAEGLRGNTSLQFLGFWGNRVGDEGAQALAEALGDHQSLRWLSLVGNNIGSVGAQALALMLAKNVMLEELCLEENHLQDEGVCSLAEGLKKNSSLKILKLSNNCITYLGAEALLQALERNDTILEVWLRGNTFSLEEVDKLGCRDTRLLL

The results in this text go back to PMC10349017.

For this assay, the target named is Nucleotide-binding oligomerization domain-containing protein 2 (human (endogenous in A549)) (UniProt Q9HC29). As to the kind of experiment: co-IP; A549 cell lysate (RIPA buffer), pre-incubated with protein A agarose beads at 4 °C for 4 h; antibodies against CCN4 or Nod2, or IgG as control, with protein A agarose overnight at 4 °C; immunoblot.

B1: Cellular Communication Network Factor 4 (protein, UniProt O95388 23-367)
chain: TALSPAPTTMDFTPAPLEDTSSRPQFCKWPCECPPSPPRCPLGVSLITDGCECCKMCAQQLGDNCTEAAICDPHRGLYCDYSGDRPRYAIGVCAQVVGVGCVLDGVRYNNGQSFQPNCKYNCTCIDGAVGCTPLCLRVRPPRLWCPHPRRVSIPGHCCEQWVCEDDAKRPRKTAPRDTGAFDAVGEVEAWHRNCIAYTSPWSPCSTSCGLGVSTRISNVNAQCWPEQESRLCNLRPCDVDIHTLIKAGKKCLAVYQPEASMNFTLAGCISTRSYQPKYCGVCMDNRCCIPYKSKTIDVSFQCPDGLGFSRQVLWINACFCNLSCRNPNDIFADLESYPDFSEIAN
With B1, the binding result is given as “binds”.
